Reference: paper PMC8274477
No constants are given. Whether binding was seen depends on the method and setting. Some binding calls cover weakened binding; strength is not graded here.

Amino acid sequences for entries named in this document (tags omitted).
UniProt Q05397: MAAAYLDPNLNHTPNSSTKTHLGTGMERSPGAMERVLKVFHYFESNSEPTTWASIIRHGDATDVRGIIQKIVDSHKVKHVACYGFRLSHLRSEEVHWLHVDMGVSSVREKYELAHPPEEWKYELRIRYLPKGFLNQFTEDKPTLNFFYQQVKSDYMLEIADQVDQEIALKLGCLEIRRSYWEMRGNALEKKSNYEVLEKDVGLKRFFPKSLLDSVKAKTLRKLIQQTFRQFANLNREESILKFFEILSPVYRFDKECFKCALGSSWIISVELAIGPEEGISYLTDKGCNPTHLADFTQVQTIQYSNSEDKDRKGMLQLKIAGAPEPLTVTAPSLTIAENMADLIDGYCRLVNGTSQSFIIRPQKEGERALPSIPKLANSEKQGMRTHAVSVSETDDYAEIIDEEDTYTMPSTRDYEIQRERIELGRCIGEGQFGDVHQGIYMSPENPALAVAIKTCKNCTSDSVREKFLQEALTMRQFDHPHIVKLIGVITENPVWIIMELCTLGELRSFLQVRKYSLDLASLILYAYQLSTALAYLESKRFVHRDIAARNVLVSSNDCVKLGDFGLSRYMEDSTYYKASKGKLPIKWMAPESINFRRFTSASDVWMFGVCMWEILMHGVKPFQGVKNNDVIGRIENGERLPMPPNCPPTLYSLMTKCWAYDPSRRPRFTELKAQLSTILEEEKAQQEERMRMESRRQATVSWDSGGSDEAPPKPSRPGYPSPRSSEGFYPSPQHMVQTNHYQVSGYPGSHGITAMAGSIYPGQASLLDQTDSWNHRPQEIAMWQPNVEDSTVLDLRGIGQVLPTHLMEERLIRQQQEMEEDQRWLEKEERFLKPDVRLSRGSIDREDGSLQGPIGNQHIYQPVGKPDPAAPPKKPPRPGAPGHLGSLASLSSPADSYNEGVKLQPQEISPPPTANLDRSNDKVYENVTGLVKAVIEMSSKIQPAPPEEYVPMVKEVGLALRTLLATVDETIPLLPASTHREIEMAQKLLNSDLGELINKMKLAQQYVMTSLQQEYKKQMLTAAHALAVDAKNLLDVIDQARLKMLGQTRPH
UniProt O95619: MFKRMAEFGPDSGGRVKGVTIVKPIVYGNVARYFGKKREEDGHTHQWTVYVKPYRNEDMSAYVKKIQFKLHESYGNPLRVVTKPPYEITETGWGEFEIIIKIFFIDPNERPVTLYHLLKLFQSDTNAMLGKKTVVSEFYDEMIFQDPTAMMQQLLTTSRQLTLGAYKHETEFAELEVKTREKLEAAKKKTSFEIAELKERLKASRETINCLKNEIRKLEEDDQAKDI

Columns and labels:
Assay in all cases: peptide or protein array; HuProt human proteome microarray; 5 ug/5 ml biotin-labelled LUBAC or OTULIN in solution, 1 h at room temperature; Cy5-streptavidin, scanned at 635 nm; BSA as negative control; hits: Z-score >= 3 and I_(Mean_Ratio) >= 1.4; both purified
MISP (human) = target: T1, MISP (human) (UniProt Q8IVT2)
T1 sequence: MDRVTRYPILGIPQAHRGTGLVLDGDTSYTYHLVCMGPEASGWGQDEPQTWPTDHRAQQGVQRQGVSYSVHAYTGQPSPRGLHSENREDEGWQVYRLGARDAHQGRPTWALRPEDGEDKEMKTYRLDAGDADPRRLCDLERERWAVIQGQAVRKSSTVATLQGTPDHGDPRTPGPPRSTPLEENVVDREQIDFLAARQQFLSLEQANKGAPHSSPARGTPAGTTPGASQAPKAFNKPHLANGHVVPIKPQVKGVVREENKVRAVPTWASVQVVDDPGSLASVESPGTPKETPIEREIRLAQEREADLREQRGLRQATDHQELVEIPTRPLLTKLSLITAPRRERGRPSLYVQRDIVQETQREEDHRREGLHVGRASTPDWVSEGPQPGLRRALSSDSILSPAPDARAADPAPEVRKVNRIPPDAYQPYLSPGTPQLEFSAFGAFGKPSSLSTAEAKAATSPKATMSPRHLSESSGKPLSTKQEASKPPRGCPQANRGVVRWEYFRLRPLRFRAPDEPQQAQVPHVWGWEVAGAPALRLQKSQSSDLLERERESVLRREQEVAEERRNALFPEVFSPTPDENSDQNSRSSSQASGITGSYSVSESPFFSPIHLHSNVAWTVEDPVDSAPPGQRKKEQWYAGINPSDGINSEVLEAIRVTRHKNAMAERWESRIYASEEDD

PTK2 (human) = PTK2 (human) (UniProt Q05397)
GMPPA (human) = target: T2, GMPPA (human) (UniProt Q96IJ6)
T2 sequence: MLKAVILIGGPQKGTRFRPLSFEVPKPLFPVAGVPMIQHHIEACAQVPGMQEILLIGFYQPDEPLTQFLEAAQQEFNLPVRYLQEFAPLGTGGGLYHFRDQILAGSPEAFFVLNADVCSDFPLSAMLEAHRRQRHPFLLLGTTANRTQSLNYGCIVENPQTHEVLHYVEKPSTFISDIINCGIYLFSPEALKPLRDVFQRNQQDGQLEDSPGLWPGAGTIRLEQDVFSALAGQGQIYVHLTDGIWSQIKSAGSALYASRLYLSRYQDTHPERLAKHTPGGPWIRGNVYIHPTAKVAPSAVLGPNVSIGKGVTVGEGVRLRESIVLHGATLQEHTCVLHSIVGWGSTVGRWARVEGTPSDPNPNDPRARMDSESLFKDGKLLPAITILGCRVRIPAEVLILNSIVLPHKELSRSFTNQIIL

YEATS4 (human) = YEATS4 (human) (UniProt O95619)
DOK1 (human) = target: T3, DOK1 (human) (UniProt Q99704)
T3 sequence: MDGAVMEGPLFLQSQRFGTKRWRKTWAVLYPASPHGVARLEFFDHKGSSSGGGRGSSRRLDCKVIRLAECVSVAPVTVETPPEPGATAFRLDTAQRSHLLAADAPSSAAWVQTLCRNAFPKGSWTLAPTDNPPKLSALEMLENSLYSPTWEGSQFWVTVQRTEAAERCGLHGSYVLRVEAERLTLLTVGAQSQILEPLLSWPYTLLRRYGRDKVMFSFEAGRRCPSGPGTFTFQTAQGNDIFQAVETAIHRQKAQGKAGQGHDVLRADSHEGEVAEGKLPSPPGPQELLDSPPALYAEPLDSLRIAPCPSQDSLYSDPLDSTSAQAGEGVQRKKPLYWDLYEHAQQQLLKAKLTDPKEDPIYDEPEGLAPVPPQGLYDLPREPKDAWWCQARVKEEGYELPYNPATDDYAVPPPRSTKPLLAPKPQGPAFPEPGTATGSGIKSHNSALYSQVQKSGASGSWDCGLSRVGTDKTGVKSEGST

NUMBL (human) = target: T4, NUMBL (human) (UniProt Q9Y6R0)
T4 sequence: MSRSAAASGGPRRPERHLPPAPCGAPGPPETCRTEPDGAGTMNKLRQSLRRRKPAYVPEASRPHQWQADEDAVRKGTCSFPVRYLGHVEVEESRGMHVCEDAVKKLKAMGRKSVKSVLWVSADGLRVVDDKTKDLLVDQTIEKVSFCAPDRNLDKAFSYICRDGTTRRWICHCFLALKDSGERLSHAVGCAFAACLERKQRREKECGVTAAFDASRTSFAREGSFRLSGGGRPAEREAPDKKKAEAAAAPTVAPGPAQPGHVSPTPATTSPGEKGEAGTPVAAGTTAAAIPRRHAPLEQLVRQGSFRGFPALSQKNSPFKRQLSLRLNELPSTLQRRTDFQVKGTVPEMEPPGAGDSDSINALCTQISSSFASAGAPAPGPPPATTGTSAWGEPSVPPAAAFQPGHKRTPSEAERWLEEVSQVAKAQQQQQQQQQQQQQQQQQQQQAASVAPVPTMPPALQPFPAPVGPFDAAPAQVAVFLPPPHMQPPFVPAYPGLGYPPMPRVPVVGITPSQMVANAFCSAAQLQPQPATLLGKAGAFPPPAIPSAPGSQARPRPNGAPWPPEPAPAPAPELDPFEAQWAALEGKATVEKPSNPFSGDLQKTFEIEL

Measured: binding

linear ubiquitin chain assembly complex (LUBAC), purified as HIS-tagged HOIP with the subunit HOIL-1, biotin-labelled (from UniProt Q96EP0 1-1072; Q9BYM8 1-510)
binds: all assays above
